# PubChem BioAssay AID1487 (National Center for Advancing Translational Sciences (NCATS), 2009)
# The whole screen tested about 200,000 compounds, of which about 25 (0.01%) were called active. Inconclusive means that the source gave no clear call. Such entries were picked first, then a sample of the others. Calls follow the shape of the dose curve; as a rule, active = well fitted inhibition curve with a large enough effect in the signal ratio, with a control signal flat (not every such curve was filed as active); inconclusive = small, poorly fitted or top-dose-only effect, or effect the other way, or a change in a side signal; inactive = flat fitted curve, though single readings scatter; the % refers to the signal ratio. Where the call is inconclusive, the potency comes from a doubtful curve fit.
# Assay: qHTS Assay for Modulators of Lamin A Splicing
# Conditions: HeLa LMNA splicing GFP/RFP minigene ratio, 48 h; ratio change, negative = inhibition: at 46.1 µM (top of the series) unless noted
# Procedure, shortened: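 Read-out is the ratio of GFP to DsRed2 object intensity, acquired by 488 nm laser-scanning cytometry on HeLa lamin A-EGFP minigene reporter cells. Compound incubation 48 hrs at 37 °C in Opti-MEM with 2% FBS; DMSO 0.5% final.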
# % is scaled to controls: 0 for no effect and ±100 for the full control effect; potency is read from the fitted curve at half-maximal effect.
Structure (SMILES),"ratio change, negative = inhibition",Potency
COC(=O)c1cc(-c2ccccc2)sc1N,inactive: 3.01%,
CC12CCC(O)CC1=CCC1C2CCC2(C)C1CCC21CCC(=O)O1 (centres undefined),inconclusive: -46.2%,
Nc1c(S(=O)(=O)c2cccc(Cl)c2)c2nc3ccccc3nc2n1/N=C/c1ccc(O)c(O)c1,,"inconclusive: 22.4 µM [inhibitor, single point]"
Clc1cccc(Nc2ncnc3c2nc2n3CCCCC2)c1,,"inconclusive: 25.1 µM [inhibitor, single point]"
O=C(Nc1ccccn1)c1ccc(CN(c2ccccc2)S(=O)(=O)c2ccccc2)cc1,inconclusive: -36.8% [at 46 µM],
COC(=O)c1ccc(CSc2nnc(SCc3ccc(C(=O)OC)o3)s2)o1,inconclusive: -1.47%,
CC1CCN(C(c2ccc(N(C)C)cc2)c2nnnn2Cc2ccc(F)cc2)CC1 (centres undefined),inconclusive: 6.07%,
COc1ccc(Cn2nnnc2C(c2cc(OC)ccc2OC)N2CCC(C(N)=O)CC2)cc1 (centres undefined),inconclusive: 10%,
COc1ccc(CN2C(=O)CCCc3ccccc32)cc1,inconclusive: 22.9% [at 46 µM],
COc1ccccc1N(CC(=O)N(c1ccccc1)C(C)C)S(=O)(=O)c1cccs1,inconclusive: -10.1% [at 46 µM],
CC(CCc1ccccc1)NC(=O)Cc1ccccc1 (centres undefined),inactive: 11.2%,
CCS(=O)(=O)Nc1cc(OC)c(OC)cc1Cc1nccc2cc(OC)c(OC)cc12,inconclusive: -9.14% [at 46 µM],
CC(C)CCN1CN(S(=O)(=O)c2cccs2)c2nc3ccccc3nc21,inactive: 2.16%,
C=CCn1c(CNC(=O)c2ccco2)nnc1SCC(=O)N1c2ccccc2Sc2ccccc21,inactive: -1.5%,
Cc1c(C(=O)Nc2c(F)cccc2F)sc2ncn(Cc3ccccc3F)c(=O)c12,inconclusive: -1.04% [at 46 µM],
Cc1ccccc1OCC(=O)OCC(=O)Nc1ccc(N2CCOCC2)cc1,inconclusive: -21.8% [at 46 µM],
CCc1ccc(C(=O)NC(C(=O)NCC2CCCO2)C(C)C)cc1 (centres undefined),inconclusive: 16.3% [at 46 µM],
Cc1nc2ccc(NC(=O)COc3ccccc3F)cc2s1,inconclusive: 29.3% [at 46 µM],
CN1CCS/C1=C/C=C1/SC(=S)N(Cc2ccccc2)C1=O,inactive: -13.5%,
O=C(Nc1c2c(nn1-c1ccc(Cl)cc1)CS(=O)(=O)C2)c1ccc(Br)cc1,inactive: -20% [at 46 µM],
CCN(CC)CCN(C(=O)CCOc1ccccc1)c1nc2ccc(F)cc2s1,inconclusive: 10.7% [at 9.22 µM],

Structure (SMILES),"ratio change, negative = inhibition",Potency
C[N+]1(CC(O)COCC2COc3ccccc3O2)CCOCC1 (centres undefined),inconclusive: 24.8% [at 46 µM],
Cc1cnc(C(=O)OCC(=O)Nc2ccc(C)c(S(=O)(=O)N3CCCCCC3)c2)cn1,inconclusive: -1.96% [at 46 µM],
CCCn1c2ccccc2c2cnn(CC(=O)N3CCCC(C(=O)OCC)C3)c(=O)c21 (centres undefined),inconclusive: 66.1% [at 46 µM],
CCCCN(CCCC)C(=O)c1c[nH]c2ccc(S(=O)(=O)Nc3cccc(Cl)c3C)cc2c1=O,inactive: -24% [at 46 µM],
Cc1nnc(SC(C)C(=O)N2CCc3ccccc32)s1 (centres undefined),inactive: 2.47%,
COc1cc(C(=O)Oc2cccc(Nc3ncnc4ccccc34)c2)cc(OC)c1OC,inconclusive: -3.49%,
Cc1nc2cnc(N3CCN(C)CC3)nc2n(CCc2ccccc2)c1=O,inactive: -10.3%,
COc1ccc(C(=O)c2c(C)c3cc(C)ccc3n2CC(O)CN2CCOCC2)cc1 (centres undefined),inconclusive: -15.6%,
CCOC(=O)c1[nH]c(C)c(CN(C(C)=O)c2ccc(OCC)cc2)c1C,inactive: 7.46% [at 9.22 µM],
Cc1cccc(C)c1Nc1nnc(SC/C(O)=C(\C#N)c2nc3ccccc3[nH]2)s1,inactive: -1.73%,
Cc1cc2cc(C(c3nnnn3Cc3ccccc3)N3CCc4ccccc43)c(=O)[nH]c2cc1C (centres undefined),inconclusive: 30.2%,
CCOC(=O)c1c(C)nc2sc3c(c2c1-c1ccc(OC)cc1)NC(c1ccccc1)NC3=O (centres undefined),inactive: 14.4%,
CCC1=C(C)CN(C(=O)NCCc2ccc(S(=O)(=O)NC(=O)NC3CCC(C)CC3)cc2)C1=O (centres undefined),inconclusive: -8.92%,
NS(=O)(=O)c1ccc(NC(=O)COC(=O)CCC2CCCC2)cc1,inconclusive: 15.3% [at 46 µM],
Cc1no[n+]([O-])c1COc1ccc(/C=C(\C#N)C(N)=O)cc1,inactive: 20.3%,
Cc1nn(Cc2ccccc2)c(C)c1/C=N/NC(=O)CNc1cccc(C(F)(F)F)c1,inactive: -23.8%,
O=C(NC(CO)C(O)c1ccc([N+](=O)[O-])cc1)C(Cl)Cl (centres undefined),,"inconclusive: 7.94 µM [inhibitor, partial curve]"
CC(=O)N/N=C/c1cc2c(cc1[N+](=O)[O-])OCO2,inconclusive: -13.3% [at 46 µM],
Cc1c(C(=O)O)oc2c1ccc1ccccc12,inconclusive: 32.1%,
CCOc1ccc(C(=O)NC2CCN(C(=O)N3CCCC3)CC2)cc1,inactive: -1.86%,
O=C(c1ccc2c(c1)OCO2)N(c1ccc(Cl)cc1)C1C=CS(=O)(=O)C1 (centres undefined),inactive: -5.95%,

Structure (SMILES),"ratio change, negative = inhibition",Potency
CCN(CC)S(=O)(=O)c1ccc(Cl)c(NC(C)=O)c1,inactive: 14.3% [at 46 µM],
Cc1cc(SCC(=O)NCc2ccc(F)cc2)nc(=O)[nH]1,inactive: 10.1% [at 46 µM],
COc1ccc(C2=Nn3c(nnc3-c3ccc(OC)cc3)SC2)cc1,,"inconclusive: 35.5 µM [cytotoxic, single point]"
COc1ccc(-c2nc3ccccc3c(=O)n2CCCn2ccnc2)cc1,inactive: -0.228%,
COc1ccc(-c2nn(-c3ccccc3)cc2/C=C/C(=O)OCC(=O)Nc2cccc(C#N)c2)cc1,inconclusive: -16%,
O=C1c2cccnc2C(O)N1Cc1ccco1 (centres undefined),inactive: -5.02%,
CC(C)(C)NS(=O)(=O)c1ccc(OCC(=O)NCc2ccco2)cc1,inconclusive: 24.9% [at 46 µM],
Cc1cccc(NC(=O)CSc2nc(=O)n(Cc3cccnc3)c3c2CCC3)c1,inconclusive: -23% [at 46 µM],
COC(=O)[C@H](CCSC)NC(=O)NCCc1ccc(F)cc1,inactive: 8.85%,
O=C(CSc1nc2ccccc2o1)Nc1nc2ccccc2s1,inconclusive: 34.8%,
Cc1ccc(NC(=O)Cn2c(=O)ccc3cc(S(=O)(=O)N4CCC(C)CC4)ccc32)cc1C,inactive: -2.93% [at 46 µM],
COc1cnc(SCc2ccc(Cl)cc2Cl)nc1Cl,inconclusive: 32.6%,
Cc1nc2ccccc2cc1C(=O)N/N=C/c1ccc([N+](=O)[O-])cc1,inconclusive: 5.29%,
CCOc1ccc2ccccc2c1C(=O)N1CCN(c2ccccc2)CC1,,"inconclusive: 12.6 µM [falling, partial curve]"
COc1ccc(CC(=O)NCCc2sc(-c3cccc(F)c3)nc2C)cc1,inconclusive: 30.8% [at 46 µM],
N#Cc1nc(COc2ccc(Br)cc2)oc1N1CCN(Cc2ccccc2)CC1,inconclusive: -27.5%,
CC(Sc1ncnc2ccccc12)C(=O)Nc1ccc2c(c1)OCO2 (centres undefined),,"inconclusive: 17.8 µM [inhibitor, single point]"
O=Cc1ccccc1Oc1nc(N2CCOCC2)nc(N2CCOCC2)n1,inactive: -22.7% [at 46 µM],
Cc1cc2nc(SCCOC(=O)Nc3cccc(Cl)c3)nc(C)c2cc1C,inconclusive: -41.2%,
Cc1cc(C)cc(NC(=O)N2CCCC2C(=O)NCc2ccco2)c1 (centres undefined),inconclusive: 27.4% [at 46 µM],
CSC1=NC2(CCCCC2)CC12C=CC(=O)C=C2,inconclusive: -11.3% [at 46 µM],

# Some of the entries so far, bar-delimited.
Structure (SMILES) | ratio change, negative = inhibition | Potency
O=C1c2cccnc2C(O)N1Cc1ccco1 (centres undefined) | inactive: -5.02% | 
CC(C)(C)NS(=O)(=O)c1ccc(OCC(=O)NCc2ccco2)cc1 | inconclusive: 24.9% [at 46 µM] | 
Cc1cccc(NC(=O)CSc2nc(=O)n(Cc3cccnc3)c3c2CCC3)c1 | inconclusive: -23% [at 46 µM] | 
COC(=O)[C@H](CCSC)NC(=O)NCCc1ccc(F)cc1 | inactive: 8.85% | 
O=C(CSc1nc2ccccc2o1)Nc1nc2ccccc2s1 | inconclusive: 34.8% | 
Cc1ccc(NC(=O)Cn2c(=O)ccc3cc(S(=O)(=O)N4CCC(C)CC4)ccc32)cc1C | inactive: -2.93% [at 46 µM] | 
COc1cnc(SCc2ccc(Cl)cc2Cl)nc1Cl | inconclusive: 32.6% | 

# Next part.

Structure (SMILES),"ratio change, negative = inhibition",Potency
Cc1cccc(C)c1NC(=O)CCn1cnc2ccccc2c1=O,inconclusive: 16% [at 46 µM],
Clc1ccc(OCCCNCc2ccccc2)c(Br)c1,,"inconclusive: 25.1 µM [cytotoxic, partial curve]"
CC(=O)c1ccc(Sc2nnnn2-c2ccccc2)c([N+](=O)[O-])c1,inconclusive: -25.8%,
CC(C)(C)c1ccc(S(=O)(=O)NCc2ccc(C(=O)N3CCOCC3)cc2)cc1,inactive: 4.64%,
Cc1ccc([N+](=O)[O-])cc1S(=O)(=O)N1CCn2cccc2C1c1ccc(F)c(F)c1 (centres undefined),inconclusive: 5.68% [at 46 µM],
CCCOc1ccc(NC(=O)CC2C(=O)N(Cc3ccccc3)C(=S)N2Cc2cccs2)cc1 (centres undefined),,"inconclusive: 22.4 µM [fluorescent, single point]"
CN1CC(=O)NC1=NC(=O)c1ccc(Cl)c(S(=O)(=O)N2CCCCCC2)c1,inactive: 8.65%,
CC(=O)c1cccc(NC(=O)c2ccc3nc(C(C)C)oc3c2)c1,inconclusive: -2.47% [at 46 µM],
Cc1cccc2cc3c(N)c(C(=O)N4CCCc5ccccc54)sc3nc12,inconclusive: 20.7%,
O=C(CN1C(=O)S/C(=C\c2ccccc2)C1=O)NNC(=O)c1ccccc1O,inconclusive: 4.38%,
CCn1ccnc1CC1COc2ccccc2O1 (centres undefined),inconclusive: -13.5%,
CCS(=O)(=O)c1ccc2oc(SCC(=O)NCCc3ccc(F)cc3)nc2c1,inconclusive: -43.3% [at 46 µM],
NS(=O)(=O)c1ccc(CCNC(=O)COC(=O)CCc2ccccc2)cc1,inconclusive: -14.4% [at 46 µM],
NC(=O)c1sc(=S)n(-c2ccc(Br)cc2)c1N,inactive: -1.56%,
Cc1ccc(-n2ncc3c(=O)[nH]c(SCC(=O)N4CCCC4)nc32)cc1C,inactive: 5.98%,
Cc1cc(NC(=O)CCC(=O)N(Cc2ccco2)C(C(=O)NC2CCCCC2)c2cccs2)no1 (centres undefined),inconclusive: 17.9% [at 46 µM],
O=C(Cc1ccccc1)Nc1ccccc1C(=O)Nc1ccccc1,inactive: 9.02%,
N#C/C(=C(\O)Cc1ccccc1)c1nc2ccccc2[nH]1,inactive: 13.4%,
CN1CCN(c2ccnc(-c3ccc(N(C)C)cc3)n2)CC1,inactive: -4.98%,
O=C(CSc1nc2sc3c(c2c(=O)[nH]1)CCCC3)Nc1ccccc1F,inactive: -3.82% [at 46 µM],
CC(Sc1nc(N)cc(=O)[nH]1)C(=O)Nc1cccc(Cl)c1 (centres undefined),inconclusive: -5.04%,
